Earlier results, collected in patent US7014865B1, “Natural formulation for the treatment and prevention of depression, containing St. John's Wort and derivatives of dihydro- and tetrahydrofolic acid” (Merck Patent GmbH, priority 1998, dated 2006).
“Also recorded” adds a separate entry of the source. At least one compound was matched to its structure with a doubt left.

Columns and labels:
[1] = molecular target: T1, catechol-O-methyltransferase (Homo sapiens, UniProt P21964)
T1 sequence (P21964 1-271): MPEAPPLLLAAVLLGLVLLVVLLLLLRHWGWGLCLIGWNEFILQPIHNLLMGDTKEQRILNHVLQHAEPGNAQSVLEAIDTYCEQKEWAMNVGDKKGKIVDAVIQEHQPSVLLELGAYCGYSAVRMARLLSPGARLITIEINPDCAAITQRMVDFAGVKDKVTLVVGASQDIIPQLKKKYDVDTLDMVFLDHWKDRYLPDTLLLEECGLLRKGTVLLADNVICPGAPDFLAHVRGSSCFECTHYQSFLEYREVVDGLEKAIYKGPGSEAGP

For Cc1cc(O)c2c(=O)c3c(O)cc(O)c4c5c(O)cc(O)c6c(=O)c7c(O)cc(C)c8c1c2c(c34)c(c78)c65 [hypericin], the “inhibition of catechol-O-methyltransferase” value [1] is listed as “strong inhibitor” and the “inhibition of monoamine oxidases (MAO)” value (monoamine oxidases (MAO)) is listed as “strong inhibitor; also recorded: no inhibiting effect”.
